Sequences and labels used below:
B1: il10ra_site1_normal_mot_HHH_b2_04912_000000028_0001_1_20_H_._HHH_b1_01196_0001_0000200029_0000002_0 (protein)
chain: SSSSSDAEERILRLSREAFRLLLRGNPEEARELLEEAIELAQEAGDERALRQLEELLRTNSSSSS
B2: il10ra_site1_sap_24_mot_HHH_b1_03314_af2_000000278_0001_42_55_H_._HHH_b2_05844_af2_0001_0000100003_0000002_0_0001 (protein)
chain: SSSSDRSERIYELSREIARAISDGDREEAEELIEEAEKLIEELGDRLLKFILEHLERQLNSSSSS
B3: il10ra_site1_sap_17_mot_HHH_b1_08133_000000195_0001_1_19_H_._HHH_b2_02059_0001_0000200018_0000001_0_0001 (protein)
chain: SSSSSDVEEELEEAEKLAEERGNRAALFLLRQALEALELAGDPRVREIIRSLVRIVEEELSSSSS
B4: il10ra_site1_sap_16_mot_HHH_b1_05056_000000217_0001_1_20_H_._HHH_b1_00628_0001_0000400029_0000001_0_0001 (protein)
chain: SSSSDESQELFELIEELVEAHREGDPELVERLAEEAEKLAEELGNRLAKLQIEFIERLAHSSSSS
B5: il10ra_site1_sap_11_mot_HHH_b2_00475_000000002_0001_44_57_H_._HHH_b1_07776_0001_0000100002_0000001_0_0001 (protein)
chain: SSSSDTRELYKALRRVAKLDADGDQEEAERLLEEAERLAEELNDRLFLFNLEHLKEVIERRSSSS
B6: il10ra_site1_normal_mot_HHH_b1_07527_000000076_0001_1_15_H_._HHH_b1_07772_0001_0000200016_0000001_0 (protein)
chain: SSSSSDEVYELLREIMELLREGDEERVRELLEQIEELVKELGNFVFEFSLRVLEEQFERLFSSSS
B7: il10ra_site1_normal_mot_HHH_b1_04015_af2_000000074_0001_1_17_H_._HHH_b2_02734_0001_0000200018_0000002_0 (protein)
chain: SSSSSDLYEEVKEVIKEAIELYRNGNPEEARELLEELLEKVEEAGNPAALFALEHLLRVLSSSSS
B8: il10ra_site1_sap_22_mot_1f0bf248c09923a0581b66a675a8b92c_0001_af2_000000190_0001_52_65_H_._6586f062cc7817236c67ed8004cc3ec0_0001_0001_0000300016_0000001_0_0001 (protein)
chain: SSSSTTAERSIEFALRLAEELLKRGDPEAAELVLKIAEEAARAANNPELLRELEELLEEIRSSSS
B9: il10ra_site1_sap_13_mot_HHH_b2_00943_af2_000000149_0001_1_17_H_._HHH_b1_05738_0001_0000300015_0000001_0_0001 (protein)
chain: SSSSSDREERIEELLEQAERLAEEGNPEEATRLLAEAVRLIFELGDHELLRELWELVHKLSSSSS
B10: il10ra_site1_normal_mot_HHH_b2_02053_af2_000000006_0001_3_19_H_._HHH_b1_00442_0001_0000200013_0000001_0 (protein)
chain: SSSSEEVYKLIRRALELRANGNPEEAEKLLEEALELAEEAGNFSIVFAIEQALKLLRELLSSSSS
B11: il10ra_site1_sap_21_mot_HHH_b1_04693_000000238_0001_19_36_H_._HHH_b1_05760_0001_0000100003_0000001_0_0001 (protein)
chain: SSSSSSDLEELLEELEELVEEGDKERALRLAIELLRLAFRNSDPEILRAVWELVKRLDSSSSSSS
B12: il10ra_site1_sap_8_mot_HHH_b1_07878_000000292_0001_1_19_H_._HHH_b1_06448_0001_0000300043_0000001_0_0001 (protein)
chain: SSSSDLEELVRAALELAEQAEKAGDPRSARWLLKALLEALERNNDPELVREVEELLEEIRGSSSS
B13: il10ra_site1_normal_mot_HHH_b2_07784_af2_000000103_0001_19_36_H_._HHH_b1_06064_af2_0001_0000200006_0000002_0 (protein)
chain: SSSSSYEEVKKLIEQIVELLRRGDRERAKELIEELEELAEELNNPSLKFVVRLLEQALERLSSSS
B14: il10ra_site1_normal_mot_HHH_b2_02053_af2_000000006_0001_3_19_H_._HHH_b2_05958_0001_0000100008_0000001_0 (protein)
chain: SSSSSEETERLYKLSREALEARENGNPEEAQEILEEALEIAEEGNNFNFLFNLRFLLRDLKSSSS
B15: il10ra_site1_normal_mot_HHH_b1_05185_000000011_0001_22_39_H_._HHH_b2_02785_0001_0000100008_0000001_0 (protein)
chain: SSSSDEETQRISEIFVRAARLIVEGDEERVRELIEELERLAEELNDEYAKLSVRFLKLLLNSSSS
B16: il10ra_site1_normal_mot_HHH_b1_05056_000000217_0001_1_20_H_._HHH_b2_06339_0001_0000100003_0000001_0 (protein)
chain: SSSSDYEERVRELLEEAEELLERGNPEEALRLIAEAVRVAYEGKNPEALRLVWEFVEEFASSSSS
B17: il10ra_site1_normal_mot_05afbb9f204b58045f25af15c542ced4_0001_af2_000000154_0001_34_48_H_._HEEHE_2054_0001_0000200009_0000001_0_af2pred_0001 (protein)
chain: SRELAIKYAVERLAEYARLKSVEVEVENNTVTVTVEGDDEAARYVIRAVEVLARLAGIPFEYSTE
B18: il10ra_site1_normal_mot_HHH_b1_05056_000000217_0001_1_20_H_._HHH_b2_06260_0001_0000200013_0000001_0 (protein)
chain: SSSSSEDEEEVEELLEQAKEAAKRDPREAARLLQEATHIALQNQNEELLKEVWEVVKELANSSSS
B19: il10ra_site1_normal_mot_HHH_b2_01649_af2_000000191_0001_40_56_H_._HHH_b1_07449_0001_0000100003_0000001_0 (protein)
chain: SSSSTAEVAFRFHEELAEEALKLGNREEAERILRAAIEALRRLNDEELVEKLEELLEEVRGSSSS
B20: il10ra_site1_normal_mot_HHH_b1_06914_000000280_0001_1_18_H_._HHH_b2_00168_0001_0000200021_0000001_0 (protein)
chain: SSSDEEASQELYELLREVLELLAQGNPEEAEKVLEEAEELARENNNELFLIIIEFIKRQVSSSSS
B21: il10ra_site1_normal_mot_8756ee2cf497b5429c717dfc0c0bcfd6_0001_000000186_0001_1_13_H_._HHH_b2_04770_af2_0001_0000400016_0000001_0_af2pred_0001 (protein)
chain: SSSSSSDEELKRVQELIRRAAKITDEEELREVLEEAKELAEELGNEILRVIVEFLLELMTSSSSS
B22: il10ra_site1_normal_mot_HHH_b2_06979_000000158_0001_42_57_H_._HHH_b1_07778_af2_0001_0000100005_0000002_0 (protein)
chain: SSSSDEAHRAIELFREALELLANGDPEEAQEVIEEAKELAEEAGNELLLHNIEYLERDINSSSSS
B23: il10ra_site1_sap_21_mot_HHH_b2_04680_000000215_0001_1_16_H_._HHH_b1_05281_af2_0001_0000200007_0000002_0_0001_af2pred_0001 (protein)
chain: SSSSSTEEAQRKVVKELLEEAEHIEDEHERRLVLNLARVAAKLTGNEELEELVRKVAEELSSSSS
B24: il10ra_site1_normal_mot_HHH_b2_07144_000000289_0001_1_18_H_._HHH_b1_04467_0001_0000100001_0000001_0 (protein)
chain: SSSSDAEEIYRLSREAAELLRNGNPEEAREVVEEALRLAEEAGNATFVFAARHLLEDIEKSSSSS

The other results are listed elsewhere or left out.

The test addresses il10ra, Q13651. Description: yeast display titration.
For the molecule B1, the “apparent Kd” value is “inactive: no binding seen”.

For the molecule B2, the “apparent Kd” value was “inactive: no binding seen”.

Turning to B3, the “apparent Kd” value is “inactive: no binding seen”.

B4: the “apparent Kd” value was “inactive: no binding seen”.

On to B5, for which the “apparent Kd” value is “inactive: no binding seen”.

Turning to B6, the “apparent Kd” value is “inactive: no binding seen”.

B7: the “apparent Kd” value was “inactive: no binding seen”.

On to B8, for which the “apparent Kd” value is “inactive: no binding seen”.

For B9, the “apparent Kd” value was “inactive: no binding seen”.

For B10, the “apparent Kd” value was “inactive: no binding seen”.

As to B11, the “apparent Kd” value is “inactive: no binding seen”.

As for B12, the “apparent Kd” value is “inactive: no binding seen”.

Take B13: the “apparent Kd” value is “inactive: no binding seen”.

Consider B14, for which the “apparent Kd” value is “inactive: no binding seen”.

For B15, the “apparent Kd” value was “inactive: no binding seen”.

As to B16, the “apparent Kd” value is “inactive: no binding seen”.

On to B17, for which the “apparent Kd” value is “inactive: no binding seen”.

For B18, the “apparent Kd” value is “inactive: no binding seen”.

As for B19, the “apparent Kd” value was “inactive: no binding seen”.

Consider B20, for which the “apparent Kd” value is “inactive: no binding seen”.

In the case of B21, the “apparent Kd” value was “inactive: no binding seen”.

In the case of B22, the “apparent Kd” value is “inactive: no binding seen”.

For the molecule B23, the “apparent Kd” value was “inactive: no binding seen”.

For B24, the “apparent Kd” value is “inactive: no binding seen”.

The values are drawn from PMC10163288.
